Where a chain is given by its changes, count along the chain named. Results are given in words; binding and its absence hold for the method and conditions named. Some entries that bind do so weakly or less than the wild type. Each block holds one binder with its values, some of them ahead of it.
Molecular target: T1, human Igβ-Flag protein (human, UniProt P40259 29-159, limits assumed)
T1 construct: Expressed in FreeStyle 293 cells, purified from culture supernatant with anti-Flag M2 gel; not shown: Flag tag
T1 sequence (looked up): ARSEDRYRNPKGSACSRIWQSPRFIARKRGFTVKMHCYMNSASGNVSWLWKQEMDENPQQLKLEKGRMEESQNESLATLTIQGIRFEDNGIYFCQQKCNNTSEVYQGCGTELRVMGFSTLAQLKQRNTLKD
Assay: antigen ELISA, Igβ-Flag coated on plate

- binding: binds
B1: humanized antibody CL6_40m12_DDW (antibody, human IgG1, kappa, V domains shown)
VH: EVQMVESGGGLVQPGGSLRLSCAVSGFSLSSYSVHWVRQAPGKGLEWVAGIWSGGSIHYTPALSSRFTVSRDDSKNTVYLQMNSLRAEDTAVYYCARYDRYETYAMDYWGQGTLVTVSS
VL: DIQLTQSPSSLSASVGDRVTITCKASQSVDYDGDSYMNWYQQKPGKAPKLLIYAASNLESGVPSRFSGSGSGTDFTLTISSLQPEDFATYYCQQSNEDPLTFGQGTKVEIKR
notes: Humanized anti-human Igβ antibody

- binding: binds
B2: humanized antibody CL6_40m16_DDW (antibody, human IgG1, kappa, V domains shown)
VH: B1 VH with M4L, V37F, Q39K, V48L, A49G, F67L, D73I
VL: B1 VL with Q3V
notes: as for B1

Reference: US20170226207A1 (Astellas, published 2017)
